Results are given in words; binding and its absence hold for the method and conditions named. In cells and extracts the contact can be indirect. Some entries that bind do so weakly or less than the wild type.
How the values were obtained:
[1] = biological target: NF-κB p65 expressed from plasmid pP65 (pcDNA3.1-p65) (UniProt Q04206); assay: co-IP; 293T cells transfected with pEV or pP65, infected with bRSV (MOI 1) or mock infected, 24 h p.i.; RIPA lysates precleared, incubated with rabbit anti-p65 antibody overnight at 4°C, protein A magnetic beads, five washes with PBS-T; immunoblot with anti-p65, anti-N, anti-P; beads alone as control
[2] = biological target: NF-κB subunit p65 (endogenous, 293T cells) (human (endogenous in 293T)) (UniProt Q04206); assay: as above

Amino acid sequences for entries named in this document (tags omitted).
UniProt Q04206: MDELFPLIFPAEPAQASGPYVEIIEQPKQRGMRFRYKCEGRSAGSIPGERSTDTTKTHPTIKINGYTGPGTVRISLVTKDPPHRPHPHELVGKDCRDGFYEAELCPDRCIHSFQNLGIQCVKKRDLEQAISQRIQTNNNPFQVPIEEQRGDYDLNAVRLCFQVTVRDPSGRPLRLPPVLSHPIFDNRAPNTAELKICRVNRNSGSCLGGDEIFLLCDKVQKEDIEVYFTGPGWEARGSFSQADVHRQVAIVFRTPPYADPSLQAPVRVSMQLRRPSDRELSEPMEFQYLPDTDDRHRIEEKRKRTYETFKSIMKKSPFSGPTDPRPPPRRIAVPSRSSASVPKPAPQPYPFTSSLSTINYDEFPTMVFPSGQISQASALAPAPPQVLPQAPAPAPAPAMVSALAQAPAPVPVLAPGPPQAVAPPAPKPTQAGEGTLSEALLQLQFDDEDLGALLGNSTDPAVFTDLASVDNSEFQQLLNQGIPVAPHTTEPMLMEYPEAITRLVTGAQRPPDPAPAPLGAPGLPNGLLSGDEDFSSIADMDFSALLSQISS
UniProt P22677: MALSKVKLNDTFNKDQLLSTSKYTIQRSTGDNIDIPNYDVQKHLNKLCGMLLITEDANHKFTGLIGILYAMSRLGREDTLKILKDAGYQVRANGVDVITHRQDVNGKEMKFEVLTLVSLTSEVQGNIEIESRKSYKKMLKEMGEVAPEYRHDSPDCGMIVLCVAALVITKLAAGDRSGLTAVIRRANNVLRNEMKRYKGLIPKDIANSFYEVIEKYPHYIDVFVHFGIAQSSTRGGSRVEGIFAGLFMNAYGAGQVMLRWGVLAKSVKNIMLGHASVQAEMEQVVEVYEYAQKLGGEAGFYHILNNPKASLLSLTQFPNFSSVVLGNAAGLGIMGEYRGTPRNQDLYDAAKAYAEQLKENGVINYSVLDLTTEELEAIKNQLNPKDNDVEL

| Molecule | binding [1] | binding [2] |
| --- | --- | --- |
| bovine respiratory syncytial virus nucleoprotein (N protein) (from UniProt P22677 1-391) | binds | binds |
| bovine respiratory syncytial virus phosphoprotein (P protein) (protein, UniProt P33454 1-241) MEKFAPEFHGEDANTKATKFLESLKGKFTSSKDSRKKDSIISVNSIDIELPKESPITSTNHNINQPSEINDTIAANQVHIRKPLVSFKEELPSSENPFTKLYKETIETFDNNEEESSYSYDEINDQTNDNITARLDRIDEKLSEIIGMLHTLVVASAGPTAARDGIRDAMVGLREEMIEKIRSEALMTNDRLEAMARLRDEESEKMTKDTSDEVKLTPTSEKLNMVLEDESSDNDLSLEDF | binds | binds |

Source: PMC7592213
